Values from PubChem BioAssay AID504774 (Drosophila RNAi Screening Center, 2011)

Purpose: 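Knock-downs that shift viability of MMS-exposed cells relative to untreated ones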 (primary screen)
Cell system: Drosophila Kc167 cells
Reagents: long dsRNA against Drosophila genes, about 0.25 µg dsRNA per well
Time to read-out: about 6 days: 3 days knock-down, then 3 days with or without MMS
Challenge: methyl methanesulphonate 0.004% (w/v) for 3 days after knock-down
Read-out: 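ATP-dependent luminescence as a measure of live cells in MMS-exposed wells, quantile normalised within each plate, with replicate values also given as a mean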
Reading the numbers: mean viability with MMS and viability with MMS: higher = more surviving cells after MMS
The screen tested about 23,000 reagents; shown is a random part of those that have a named target and a result. 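Values are quantile-normalised luminescence on an arbitrary scale; higher means more cells surviving MMS.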 A plus sign joins genes that one reagent is predicted to hit. Not all columns of the deposit are shown. No sequences are given here.

gammaCOP (Coat Protein (coatomer) gamma) [DRSC16955]
- mean viability with MMS: 3.35e6
- viability with MMS, replicate 1: 3.82e6

Rbbp5 + CG6434 (retired record) [DRSC10635]
- mean viability with MMS: 3.66e6
- viability with MMS, replicate 1: 4.19e6

CG15818 [DRSC02505]
- mean viability with MMS: 3.76e6
- viability with MMS, replicate 1: 4.37e6

MTF-1 (Metal response element-binding Transcription Factor-1) [DRSC08983]
- mean viability with MMS: 3.46e6
- viability with MMS, replicate 1: 4.00e6

MTF-1 (Metal response element-binding Transcription Factor-1) [DRSC11217]
- mean viability with MMS: 3.74e6
- viability with MMS, replicate 1: 3.98e6

MTF-1 (Metal response element-binding Transcription Factor-1) [DRSC21341]
- mean viability with MMS: 3.60e6
- viability with MMS, replicate 1: 4.12e6

CG34032 (retired record) [DRSC09225]
- mean viability with MMS: 3.41e6
- viability with MMS, replicate 1: 3.96e6

NAT1 [DRSC06854]
- mean viability with MMS: 3.34e6
- viability with MMS, replicate 1: 3.76e6

CG14931 [DRSC02413]
- mean viability with MMS: 3.42e6
- viability with MMS, replicate 1: 3.96e6

eEF2 (eukaryotic translation elongation factor 2) [DRSC03737]
- mean viability with MMS: 3.30e6
- viability with MMS, replicate 1: 3.80e6

CG10555 [DRSC17748]
- mean viability with MMS: 3.42e6
- viability with MMS, replicate 1: 3.88e6

CG10555 [DRSC23202]
- mean viability with MMS: 3.78e6
- viability with MMS, replicate 1: 4.26e6

CG7878 [DRSC16330]
- mean viability with MMS: 3.53e6
- viability with MMS, replicate 1: 4.08e6

CG7394 [DRSC10835]
- mean viability with MMS: 3.46e6
- viability with MMS, replicate 1: 3.82e6

Single entries from the list:
Value of gammaCOP (Coat Protein (coatomer) gamma) [DRSC16955] under “viability with MMS, replicate 1”: 3.82e6
For “mean viability with MMS”, Rbbp5 + CG6434 (retired record) [DRSC10635] reads 3.66e6

The results go on:
CG12289 [DRSC09874]
- mean viability with MMS: 3.57e6
- viability with MMS, replicate 1: 3.99e6

Naxd (NAD(P)HX dehydratase) [DRSC09722]
- mean viability with MMS: 3.56e6
- viability with MMS, replicate 1: 4.14e6

CG1360 [DRSC06406]
- mean viability with MMS: 3.44e6
- viability with MMS, replicate 1: 3.94e6

CG45002 [DRSC20144]
- mean viability with MMS: 3.56e6
- viability with MMS, replicate 1: 4.05e6

CG42505 + CG42504 + CG31358 [DRSC15235]
- mean viability with MMS: 3.58e6
- viability with MMS, replicate 1: 4.15e6

CG42505 + CG42504 + CG31358 [DRSC15308]
- mean viability with MMS: 1.41e6
- viability with MMS, replicate 1: 3.71e6

CG42505 + CG42504 + CG31358 [DRSC15309]
- mean viability with MMS: 3.34e6
- viability with MMS, replicate 1: 3.84e6

CG1394 [DRSC19539]
- mean viability with MMS: 3.22e6
- viability with MMS, replicate 1: 3.75e6

CG18744 [DRSC15381]
- mean viability with MMS: 3.56e6
- viability with MMS, replicate 1: 4.04e6

Rsph3 (Radial spoke head protein 3) [DRSC09696]
- mean viability with MMS: 3.51e6
- viability with MMS, replicate 1: 3.99e6

Rsph3 (Radial spoke head protein 3) [DRSC10211]
- mean viability with MMS: 3.60e6
- viability with MMS, replicate 1: 4.04e6

CG11378 [DRSC18627]
- mean viability with MMS: 3.51e6
- viability with MMS, replicate 1: 3.95e6

CG3634 [DRSC11747]
- mean viability with MMS: 3.24e6
- viability with MMS, replicate 1: 3.70e6

CG14229 [DRSC19585]
- mean viability with MMS: 3.39e6
- viability with MMS, replicate 1: 3.78e6

CG14229 [DRSC23149]
- mean viability with MMS: 3.34e6
- viability with MMS, replicate 1: 3.70e6

CG2493 [DRSC02707]
- mean viability with MMS: 3.29e6
- viability with MMS, replicate 1: 3.83e6

Tsf1 (Transferrin 1) [DRSC20296]
- mean viability with MMS: 3.47e6
- viability with MMS, replicate 1: 3.88e6

Tango4 (Transport and Golgi organization 4) [DRSC19786]
- mean viability with MMS: 2.82e6
- viability with MMS, replicate 1: 3.16e6

CG14130 [DRSC10134]
- mean viability with MMS: 3.66e6
- viability with MMS, replicate 1: 4.32e6

Yp1 (Yolk protein 1) [DRSC18731]
- mean viability with MMS: 3.33e6
- viability with MMS, replicate 1: 3.81e6

CG42720 (retired record) [DRSC22549]
- mean viability with MMS: 3.59e6
- viability with MMS, replicate 1: 3.99e6
